Construct, isoform or probe ends are uncertain for at least one entry. No signal at the amounts used counts as a negative. Where a protein sequence is shown, tags need not be part of it.

In the data set the target is T1, CTCF 11ZF DNA-binding domain (UniProt P49711).
T1 sequence (looked up, limits assumed): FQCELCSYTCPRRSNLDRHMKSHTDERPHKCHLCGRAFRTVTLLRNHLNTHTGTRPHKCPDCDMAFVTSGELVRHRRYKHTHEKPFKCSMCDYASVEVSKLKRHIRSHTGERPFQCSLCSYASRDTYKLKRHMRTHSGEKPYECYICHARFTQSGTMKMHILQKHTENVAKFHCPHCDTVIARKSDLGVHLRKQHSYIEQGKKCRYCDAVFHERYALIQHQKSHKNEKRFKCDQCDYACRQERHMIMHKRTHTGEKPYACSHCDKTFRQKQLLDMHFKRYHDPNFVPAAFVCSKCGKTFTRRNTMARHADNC
The data set is described as follows: EMSA. The settings on record: 0.1 mM ZnSO4, 5 mM MgCl2; PBS with 5 mM MgCl2, 0.1 mM ZnSO4, 1 mM DTT, 0.1% NP40, 10% glycerol, poly(dI-dC) and salmon sperm DNA; 20 ul, 30 min, room temperature; 5% PAGE in 0.5x TBE; protein translated in vitro; label: 32P; probe letters rebuilt from the primers and the genome.

Regarding “AAATGTAGCCACACTAGCGTGGGGGATTTGAGGTGAGACATCGAAAATACTAAGTCATGGTGAGGGCTGGAAGACAAAAGAATGAATCACTTAATAGGAATGGCTGTGGGGAAGGGCTTGAAGGAATCATCCTCTGACTTCCATGTGAACCGTGAACATTAAACATGGAGAAATGAGGAGCGGCGGCAGATCGGTTTGGGATGCATCTTCAGGGGATGCTGAAACAACAACAGCATTTGGTTTG (double strand) [SPANX promoter -490 to -246]”, the binding result is recorded as “no binding”.
